Measurements as given in PubChem BioAssay AID493014 (National Center for Advancing Translational Sciences (NCATS), 2011).
Some of the results follow. Shown are side measurements of this screen, not its main read-out; they come without a call. The list favours compounds with an active or inconclusive main result. Potencies come from curve fits of mixed quality, noted in brackets.

Test: qHTS Assay to Find Inhibitors of Chronic Active B-Cell Receptor Signaling
Conditions: ABC-DLBCL IkBa-CBG/CBR reporter, luminescence ratio (green luciferase fused to IkBa over red control in TMD8 lymphoma cells), 4 h; measured here: CBR red luminescence, cell number
Procedure, shortened: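 Concentration-response series (up to 46 uM) were applied to TMD8 dual-reporter cells for 4 h at 37C with doxycycline. Green/red ratio, after filter-overlap correction, defined %Activity; red signal alone was normalised to basal cells and zero luminescence.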

Which AC50 does the source give for `CCOC(=O)c1ccccc1NC(=O)CSc1cccc[n+]1[O-]` here?
The AC50 was 31.6 µM [falling, single point].

With `O=C(Nc1ccc2ccccc2n1)c1ccccc1Br` as the compound, how does the AC50 read?
The AC50 was 0.708 µM [falling, full curve].

For `O=C(Nc1ccc(Cl)cc1)ON=C1CCCC1`, which AC50 is on record?
The AC50 was 3.66 µM [rising, full curve, poor fit].

Which AC50 does the source give for `O=C(Cn1cc(SCc2ccc(Cl)cc2)c2ccccc21)N1CCOCC1` here?
Its AC50 is 16.4 µM [falling, single point].

With `CC(CCc1ccccc1)NCc1ccncc1` (stereo not given) as the compound, how does the AC50 read?
Its AC50 is 6.51 µM [rising, single point].

Which AC50 does the source give for `CC(=O)Oc1ccc2c(=O)c(-c3nc4ccccc4s3)coc2c1` here?
The AC50 was 2.82 µM [falling, partial curve].

With `S=C(Nc1ccc(Oc2ccccc2)cc1)NC1CCCCCC1` as the compound, how does the AC50 read?
Its AC50 is 20.6 µM [falling, single point].

With `O=C(O)c1ccc(COc2ccc(CO)cc2Cl)cc1` as the compound, how does the AC50 read?
Its AC50 is 23.1 µM [falling, partial curve].

For `Cc1nn(C(C)C(=O)NC2C(=O)N3C(C(=O)O)=C(CSc4nnnn4C)CSC23)cc1Cl` (stereo not given), which AC50 is on record?
The AC50 was 35.5 µM [falling, single point].

Which AC50 does the source give for `N#Cc1cc2c(nc1SCc1ccc(Cl)cc1)CCCC2` here?
The AC50 was 5.17 µM [falling, full curve].

With `CC(NC(=O)c1ccc(-c2cc(C(F)(F)F)ccc2Cl)o1)c1ccccc1` (stereo not given) as the compound, how does the AC50 read?
Its AC50 is 29.1 µM [falling, single point].

Which AC50 does the source give for `CN(C)c1ccc(Nc2ccc([N+](=O)[O-])cn2)cc1` here?
Its AC50 is 2.51 µM [rising, partial curve, poor fit].

For `CC1CCC2(CC1)NC(=O)N(CC(=O)Nc1cccnc1Cl)C2=O` (stereo not given), which AC50 is on record?
Its AC50 is 2.31 µM [rising, partial curve, poor fit].

Which AC50 does the source give for `CN(C)CCNc1ncnc2sc(-c3ccccc3)cc12` here?
Its AC50 is 35.5 µM [falling, single point].

For `O=C1CCCC(O)=C1N=Nc1ccc(C(=O)O)cc1`, which AC50 is on record?
Its AC50 is 12.6 µM [falling, partial curve, poor fit].

Which AC50 does the source give for `O=C(CSc1ccc(-c2ccc(F)cc2)nn1)N1CCCc2ccccc21` here?
The AC50 was 29.1 µM [falling, partial curve, poor fit].

For `Fc1ccc(-c2nc3n(n2)Cc2ccccc2-3)cc1`, which AC50 is on record?
Its AC50 is 18.4 µM [falling, single point].

Which AC50 does the source give for `CCCS(=O)(=O)n1nc(-c2ccccc2)cc1N` here?
Its AC50 is 6.51 µM [rising, partial curve, poor fit].

For `S=C(NCCCc1ccccc1)Nc1ccc(Cl)cc1`, which AC50 is on record?
Its AC50 is 0.366 µM [rising, full curve, poor fit].

Which AC50 does the source give for `Cc1ccc(S(=O)(=O)/N=C2/C=C(Sc3ncn[nH]3)C(=O)c3ccccc32)cc1` here?
The AC50 was 5.8 µM [falling, full curve].
